# Assay results reported in US9168245B2, “Selective protein kinase inhibitors” (AB SCIENCE, priority 2011, dated 2015).
# Protein sequences, listed by entry. Tags and fused reporters are not part of them. Residues count along the entry.
# UniProt P10721, 26-976 D816V: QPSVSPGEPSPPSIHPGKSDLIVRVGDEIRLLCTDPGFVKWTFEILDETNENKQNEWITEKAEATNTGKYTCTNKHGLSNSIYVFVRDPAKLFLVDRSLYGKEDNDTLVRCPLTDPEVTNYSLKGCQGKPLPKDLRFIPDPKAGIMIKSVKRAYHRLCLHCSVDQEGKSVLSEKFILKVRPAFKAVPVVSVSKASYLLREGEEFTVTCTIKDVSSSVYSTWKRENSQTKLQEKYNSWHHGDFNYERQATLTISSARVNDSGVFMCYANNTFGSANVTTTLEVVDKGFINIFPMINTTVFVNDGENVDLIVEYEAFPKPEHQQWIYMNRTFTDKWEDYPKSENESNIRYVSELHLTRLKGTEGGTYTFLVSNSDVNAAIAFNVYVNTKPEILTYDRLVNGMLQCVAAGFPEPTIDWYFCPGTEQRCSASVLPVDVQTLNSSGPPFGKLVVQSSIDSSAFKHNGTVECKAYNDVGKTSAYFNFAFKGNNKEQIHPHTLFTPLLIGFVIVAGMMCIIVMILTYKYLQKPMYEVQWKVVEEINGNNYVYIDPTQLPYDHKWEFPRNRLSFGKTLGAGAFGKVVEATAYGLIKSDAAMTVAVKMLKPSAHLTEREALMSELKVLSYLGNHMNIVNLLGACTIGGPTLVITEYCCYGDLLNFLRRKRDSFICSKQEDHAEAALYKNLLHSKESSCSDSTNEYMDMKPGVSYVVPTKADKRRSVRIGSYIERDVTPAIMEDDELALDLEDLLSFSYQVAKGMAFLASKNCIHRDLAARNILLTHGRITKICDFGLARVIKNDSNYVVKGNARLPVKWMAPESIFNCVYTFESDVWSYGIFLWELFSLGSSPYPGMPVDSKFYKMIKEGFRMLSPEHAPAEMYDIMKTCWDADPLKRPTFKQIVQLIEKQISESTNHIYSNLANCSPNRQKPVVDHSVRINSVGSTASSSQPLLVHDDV
# Some entries share one result that the patent states for a list of compounds.
# Target: T1, c-kit D816V (Homo sapiens, UniProt P10721, D816V)
# T1 construct: expressed in transfected cells; host or cells: murine Ba/F3 proB lymphoid cells, cytokine-independent
# Assay: Colorimetric cell proliferation and viability assay (CellTiter-Blue) on BaF3 Kit D816V cell line
# Format: cell-based
# Details: Ba/F3 cells expressing human Kit D816V, cytokine independent, 48 hours incubation
row,SMILES,IC50 [nM]
1,"Cc1ccc(CN2CCOCC2)cc1Nc1ncc(-c2cc(OC(F)(F)F)cc(N3CCNC3=O)c2)o1 [Example 100, 1-{3-[2-(2-Methyl-5-morpholin-4-ylmethyl-phenylamino)-oxazol-5-yl]-5-trifluoromethoxy-phenyl}-imidazolidin-2-one]",≤ 1000
2,"CCOCc1ccc(C)c(Nc2ncc(-c3ccc(C#N)c(N4CCCCC4=O)c3)o2)c1 [Example 103, 4-[2-(5-(Ethoxymethyl)-2-methyl-phenylamino)-oxazol-5-yl]-2-(2-oxo-piperidin-1-yl)-benzonitrile]",≤ 1000
3,"Cc1ccc(OC2CCN(C)CC2)cc1Nc1ncc(-c2cc(-c3ccc[nH]c3=O)cc(C(F)(F)F)c2)o1 [Example 107, 3-(3-{2-[2-Methyl-5-(1-methyl-piperidin-4-yloxy)-phenylamino]-oxazol-5-yl}-5-trifluoromethyl-phenyl)-1H-pyridin-2-one]",≤ 1000
4,"Cc1ccc(OCCCO)cc1Nc1ncc(-c2ccnc(-c3c(C)cc[nH]c3=O)c2)o1 [Example 111, 4-{2-[5-(3-Hydroxy-propoxy)-2-methyl-phenylamino]-oxazol-5-yl}-4′-methyl-1′H-[2,3′]bipyridinyl-2′-one]",≤ 1000
5,"COc1ccc(C)c(Nc2ncc(-c3cc(N4CCCCC4)cc(-n4ccccc4=O)c3)o2)c1 [Example 114, 1-{3-[2-(5-Methoxy-2-methyl-phenylamino)-oxazol-5-yl]-5-piperidin-1-yl-phenyl}-1H-pyridin-2-one]",≤ 1000
6,"COCCCOc1ccc(C)c(Nc2ncc(-c3cc(-c4ccc[nH]c4=O)cc(N4CCOCC4)c3)o2)c1 [Example 116, 3-(3-{2-[5-(3-Methoxy-propoxy)-2-methyl-phenylamino]-oxazol-5-yl}-5-morpholin-4-yl-phenyl)-1H-pyridin-2-one]",≤ 1000
7,"Cc1ccc(OCCN2CCCCC2)cc1Nc1ncc(-c2cc(-c3ccc[nH]c3=O)cc(N3CCCCC3)c2)o1 [Example 119, 3-(3-{2-[2-Methyl-5-(2-piperidin-1-yl-ethoxy)-phenylamino]-oxazol-5-yl}-5-piperidin-1-yl-phenyl)-1H-pyridin-2-one]",≤ 1000
8,"Cc1ccc(OCCN2CCCC2)cc1Nc1ncc(-c2cc(CC(C)C)cc(-c3ccc[nH]c3=O)c2)o1 [Example 127, 3-(3-Isobutyl-5-{2-[2-methyl-5-(2-pyrrolidin-1-yl-ethoxy)-phenylamino]-oxazol-5-yl}-phenyl)-1H-pyridin-2-one]",≤ 1000
9,"Cc1cc(NC(=O)CN2CCCC2)cc(Nc2ncc(-c3cncc(-n4ccccc4=O)c3)o2)c1 [Example 130, N-{3-[5-(2-Oxo-2H-[1,3′]bipyridinyl-5′-yl)-oxazol-2-yl-amino]-5-methyl-phenyl}-2-pyrrolidin-1-yl-acetamide]",≤ 1000
10,"Cc1ccn(-c2cncc(-c3cnc(Nc4cc(NC(=O)CN5CCCC5)ccc4C)o3)c2)c(=O)c1 [Example 131, N-{4-Methyl-3-[5-(4-methyl-2-oxo-2H-[1,3′]bipyridinyl-5′-yl)-oxazol-2-ylamino]-phenyl}-2-pyrrolidin-1-yl-acetamide]",≤ 1000
11,"Cc1ccc(NS(=O)(=O)CC(C)C)cc1Nc1ncc(-c2cncc(-c3ccc[nH]c3=O)c2)o1 [Example 132, 2-Methyl-propane-1-sulfonic acid {4-methyl-3-[5-(2′-oxo-1′,2′-dihydro-[3,3′]bipyridinyl-5-yl)-oxazol-2-yl-amino]-phenyl}-amide]",≤ 1000
12,"Cc1ccc(COC(C)C)cc1Nc1ncc(-c2cncc(-c3ccc[nH]c3=O)c2)o1 [Example 133, 5′-[2-(5-(Isopropoxymethyl)-2-methyl-phenylamino)-oxazol-5-yl]-1H-[3,3′]bipyridinyl-2-one]",≤ 1000
13,"Cc1cc(C)cc(Nc2ncc(-c3cc(OC(F)(F)F)cc(-c4c(C)cc[nH]c4=O)c3)o2)c1 [Example 136, 3-{3-[2-(3,5-Dimethyl-phenylamino)-oxazol-5-yl]-5-trifluoromethoxy-phenyl}-4-methyl-1H-pyridin-2-one]",≤ 1000
